Measured values from patent US20240285600A1, “NOVEL MKRN1 INHIBITOR AND PHARMACEUTICAL COMPOSITION FOR PREVENTING OR TREATING OBESITY OR FATTY LIVER COMPRISING THE SAME” (UIF (University Industry Foundation), Yosei University, priority 2023, published 2024).

The chains behind the UniProt entries cited, without tags or fusion partners. Residues count along the entry.
UniProt Q9UHC7, 264-482: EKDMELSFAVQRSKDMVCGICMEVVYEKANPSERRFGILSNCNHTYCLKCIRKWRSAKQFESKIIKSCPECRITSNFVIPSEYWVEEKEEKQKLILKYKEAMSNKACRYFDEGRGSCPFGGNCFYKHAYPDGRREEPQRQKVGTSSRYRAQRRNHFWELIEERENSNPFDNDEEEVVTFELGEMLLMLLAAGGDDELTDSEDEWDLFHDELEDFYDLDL
UniProt Q9UHC7, whole entry H307E: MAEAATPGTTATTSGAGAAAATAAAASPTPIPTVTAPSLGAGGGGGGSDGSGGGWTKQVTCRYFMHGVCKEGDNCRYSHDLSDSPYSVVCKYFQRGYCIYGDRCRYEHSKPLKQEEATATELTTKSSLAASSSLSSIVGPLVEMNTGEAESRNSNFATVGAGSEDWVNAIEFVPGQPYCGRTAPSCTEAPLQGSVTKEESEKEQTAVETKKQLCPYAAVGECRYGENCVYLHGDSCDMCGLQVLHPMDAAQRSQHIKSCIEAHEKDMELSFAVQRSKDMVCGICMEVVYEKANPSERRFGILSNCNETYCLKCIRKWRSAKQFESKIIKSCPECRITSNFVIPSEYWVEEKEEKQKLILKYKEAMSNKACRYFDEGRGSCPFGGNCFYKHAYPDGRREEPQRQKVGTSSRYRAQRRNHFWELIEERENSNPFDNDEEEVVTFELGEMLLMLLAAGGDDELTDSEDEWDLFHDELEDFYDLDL

How the values were obtained:
[1] = molecular target: recombinant MKRN1 (264-482) protein (Homo sapiens, UniProt Q9UHC7); details: purified recombinant protein, FIG. 12B
MKRN1 [2] = molecular target: T1, MKRN1 (Homo sapiens, UniProt Q9UHC7); details: HepG2 cells
MKRN1 [3] = molecular target: MKRN1 (Homo sapiens, UniProt Q9UHC7, H307E); details: 293T cells overexpressing MKRN1 E3 ligase-deficient mutant (H307E), FIG. 11
MKRN1 [4] = molecular target: T1, MKRN1; details: FIG. 11
MKRN1 [5] = molecular target: T1, MKRN1; details: 293T cells overexpressing MKRN1 WT with ubiquitin, FIG. 12A

CC(C)(C)c1ccc(C(=O)CCCN2CCC(OC(c3ccccc3)c3ccccc3)CC2)cc1 [ebastine]
ubiquitination of MKRN1 (264-482) [1]: increased
amount of MKRN1 protein (MKRN1 [2]; cultured for 16 or 24 hours, FIG. 9): decreased
amount of MKRN1 protein with proteasome inhibitor MG132 (MKRN1 [2]; ebastine together with MG132, FIG. 10): decrease in MKRN1 protein was suppressed by MG132 treatment
amount of MKRN1 protein, H307E mutant (MKRN1 [3]): did not reduce the amount of MKRN1 protein
amount of MKRN1 protein, MKRN1 264-482 (MKRN1 [4]; 293T cells overexpressing MKRN1 264-482 (contains RING finger)): decreased
amount of MKRN1 protein, MKRN1 WT (MKRN1 [4]; 293T cells overexpressing MKRN1 WT): decreased
ubiquitination of MKRN1 (MKRN1 [5]): induced the ubiquitination of MKRN1
